{"source": "the supplement of paper PMC7024190", "note": "Counter-ions that a name gives are not always drawn. Some of the results follow. This data set is noisy: repeats of one test often differ as much as different tests do.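 The cells were human embryonic kidney cells carrying a Renilla luciferase gene, driven by the HSV-TK promoter, on a plasmid put in briefly by transfection. This is the first-round screen of about ten thousand compounds, looking for ones that raise reporter output.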"}
{"tested_on": "HEK 293FT", "test": "log relative Renilla luciferase luminescence (reporter expression vs reference, reference not stated) (log (base not stated)); higher = higher recombinant reporter expression", "settings": "10 µM; time after transfection 48 h"}
{"smiles": "COc1ccc(-c2ccc(=N)n(CCCC(=O)O)n2)cc1", "note": "[Gabazine bromide]", "log": 0.0464}
{"smiles": "CC(C)(S)[C@@H](N)C(=O)O", "note": "[Penicillamine]", "log": 0.188}
{"smiles": "Cn1c(=O)c2c(ncn2CC(=O)O)n(C)c1=O", "note": "[Acefylline]", "log": 0.111}
{"smiles": "CN(C)CC/C=C1\\c2ccccc2CSc2ccccc21", "note": "[Dosulepin hydrochloride]", "log": 0.0769}
{"smiles": "CC(C)(Oc1ccc(Cl)cc1)C(=O)O", "note": "[Clofibric acid]", "log": 0.0523}
{"smiles": "Cn1c(=O)c2[nH]cnc2n(C)c1=O", "note": "[Aminophylline]", "log": -0.119}
{"smiles": "CS(=O)(=O)c1ccc(C2=C(c3ccccc3)C(=O)OC2)cc1", "note": "[Rofecoxib]", "log": -0.0407}
{"smiles": "Cc1[nH]c(=O)c(C#N)cc1-c1ccncc1", "note": "[Milrinone]", "log": 0.093}
{"smiles": "CN(C)CCC=C1c2ccccc2CCc2ccccc21", "note": "[Amitryptiline hydrochloride]", "log": 0.23}
{"smiles": "C[C@]12CC[C@H]3C(=CCc4cc(O)ccc43)[C@@H]1CCC2=O", "note": "[Equilin]", "log": -0.875}
{"smiles": "C=C[C@H]1CN2CC[C@H]1C[C@@H]2[C@@H](O)c1ccnc2ccc(OC)cc12", "note": "[Quinidine hydrochloride monohydrate]", "log": 0.00284}
{"smiles": "Cc1cccc(C)c1NC(=O)C1CCCCN1C", "note": "(stereo not given) [Mepivacaine hydrochloride]", "log": 0.0769}
{"smiles": "Cc1ncc([N+](=O)[O-])n1CC(O)CCl", "note": "(stereo not given) [Ornidazole]", "log": 0.0554}
{"smiles": "CN1C(C(=O)Nc2ccccn2)=C(O)c2sccc2S1(=O)=O", "note": "[Tenoxicam]", "log": 0.0806}
{"smiles": "CCCCC(CC)CN1CN(CC(CC)CCCC)CC(C)(N)C1", "note": "(stereo not given) [Hexetidine]", "log": 0.0967}
{"smiles": "O=C(CCCN1CCC(O)(c2ccc(Br)cc2)CC1)c1ccc(F)cc1", "note": "[Bromperidol]", "log": -0.0946}
{"smiles": "CC(=O)c1ccc2c(c1)N(CCCN1CCC(CCO)CC1)c1ccccc1S2", "note": "[Piperacetazine]", "log": 0.106}
{"smiles": "CO[C@@]1(NC(=O)Cc2cccs2)C(=O)N2C(C(=O)O)=C(COC(N)=O)CS[C@@H]21", "note": "[Cefoxitin sodium salt]", "log": -0.162}
{"smiles": "COc1cc(Cc2cnc(N)nc2N)cc(OC)c1OC", "note": "[Trimethoprim]", "log": 0.109}
{"smiles": "CCN(CC)CCOC(=O)C(c1ccccc1)C1CCCCC1", "note": "(stereo not given) [Drofenine hydrochloride]", "log": 0.125}
{"smiles": "CC[C@H]1OC(=O)[C@H](C)[C@@H](O[C@H]2C[C@@](C)(OC)[C@@H](O)[C@H](C)O2)[C@H](C)[C@@H](O[C@@H]2O[C@H](C)C[C@H](N(C)C)[C@H]2O)[C@](C)(OC)C[C@@H](C)C(=O)[C@H](C)[C@@H](O)[C@]1(C)O", "note": "[Clarithromycin]", "log": 0.0542}
{"smiles": "CCOc1ccccc1OCC1CNCCO1", "note": "(stereo not given) [Viloxazine hydrochloride]", "log": -0.324}
{"smiles": "CCCCOC(=O)c1ccc(N)cc1", "note": "[Butamben]", "log": 0.0286}
{"smiles": "N=C(N)NC(=O)c1nc(Cl)c(N)nc1N", "note": "[Amiloride hydrochloride dihydrate]", "log": -0.0656}
{"smiles": "O=C1NCN(c2ccccc2)C12CCN(CCCC(c1ccc(F)cc1)c1ccc(F)cc1)CC2", "note": "[Fluspirilen]", "log": 0.086}
{"smiles": "CC(C)(C)C(=O)OCOC(=O)[C@@H]1N2C(=O)[C@@H](NC(=O)[C@H](N)c3ccccc3)[C@H]2SC1(C)C", "note": "[Pivampicillin]", "log": 0.0303}
{"smiles": "COc1cc(C(=O)NS(=O)(=O)c2ccccc2C)ccc1Cc1cn(C)c2ccc(NC(=O)OC3CCCC3)cc12", "note": "[Zafirlukast]", "log": 0.0583}
{"smiles": "Cc1cc(C2CCCCC2)n(O)c(=O)c1", "note": "[Ciclopirox ethanolamine]", "log": -0.41}
{"smiles": "NS(=O)(=O)c1cc(C(=O)O)c(NCc2ccco2)cc1Cl", "note": "[Furosemide]", "log": -0.0275}
{"smiles": "CCOc1ccc2c(c1)C(C)=CC(C)(C)N2", "note": "[Ethoxyquin]", "log": -0.0194}
{"smiles": "CCOC(=O)[C@H](CCc1ccccc1)N[C@@H](C)C(=O)N1[C@H](C(=O)O)C[C@@H]2CCC[C@@H]21", "note": "[Ramipril]", "log": 0.228}
{"smiles": "NC(=O)c1ncn([C@@H]2O[C@H](CO)[C@@H](O)[C@H]2O)n1", "note": "[Ribavirin]", "log": 0.0115}
{"smiles": "CC(C)COCC(CN(Cc1ccccc1)c1ccccc1)N1CCCC1", "note": "(stereo not given) [Bepridil hydrochloride]", "log": 0.0781}
{"smiles": "CNS(=O)(=O)Cc1ccc2[nH]cc(CCN(C)C)c2c1", "note": "[Sumatriptan succinate]", "log": 0.206}
{"smiles": "CN[C@H](CC(C)C)C(=O)N[C@H]1C(=O)N[C@@H](CC(N)=O)C(=O)N[C@H]2C(=O)N[C@H]3C(=O)N[C@H](C(=O)N[C@H](C(=O)O)c4cc(O)cc(O)c4-c4cc3ccc4O)[C@H](O)c3ccc(c(Cl)c3)Oc3cc2cc(c3O[C@@H]2O[C@H](CO)[C@@H](O)[C@H](O)[C@H]2O[C@H]2C[C@](C)(N)[C@H](O)[C@H](C)O2)Oc2ccc(cc2Cl)[C@H]1O", "note": "[Vancomycin hydrochloride]", "log": -0.0312}
{"smiles": "NS(=O)(=O)c1cc2c(cc1Cl)N=CNS2(=O)=O", "note": "[Chlorothiazide]", "log": 0.0157}
{"smiles": "O=S(=O)(O)CCS", "note": "[Mesna]", "log": 0.0221}
{"smiles": "CCn1cc(C(=O)O)c(=O)c2cnc(N3CCCC3)nc21", "note": "[Piromidic acid]", "log": -0.179}
{"smiles": "CC(C)(C)NC[C@H](O)c1ccc(O)c(CO)c1", "note": "[Levalbuterol hydrochloride]", "log": 0.0377}
{"smiles": "O=C(O)c1cc(-c2ccc(F)cc2F)ccc1O", "note": "[Diflunisal]", "log": 0.0344}
{"smiles": "CCCCNC(=O)NS(=O)(=O)c1ccc(C)cc1", "note": "[Tolbutamide]", "log": 0.149}
{"smiles": "CC(=O)[C@H]1CC[C@H]2[C@@H]3C[C@H](C)C4=CC(=O)CC[C@]4(C)[C@H]3[C@@H](O)C[C@]12C", "note": "[Medrysone]", "log": -0.0596}
{"smiles": "CC(=O)OCC(=O)[C@@]12N=C(C)O[C@@H]1C[C@H]1[C@@H]3CCC4=CC(=O)C=C[C@]4(C)[C@H]3[C@@H](O)C[C@@]12C", "note": "[Deflazacort]", "log": -0.145}
{"smiles": "O=C(O)Cc1sc(-c2ccccc2)nc1-c1ccc(Cl)cc1", "note": "[Fentiazac]", "log": -0.777}
{"smiles": "OCc1cc(C(O)CNCCCCCCOCCCCc2ccccc2)ccc1O", "note": "(stereo not given) [Salmeterol]", "log": 0.0115}
{"smiles": "CNCCC(Oc1ccc(C(F)(F)F)cc1)c1ccccc1", "note": "(stereo not given) [Fluoxetine hydrochloride]", "log": 0.131}
{"smiles": "Cc1nc2n(c(=O)c1CCN1CCC(c3noc4cc(F)ccc34)CC1)CCCC2", "note": "[Risperidone]", "log": -0.0974}
{"smiles": "CCCCOc1cc(C(=O)NCCN(CC)CC)c2ccccc2n1", "note": "[Dibucaine]", "log": 0.224}
{"smiles": "O=P(O)(O)C(Cl)(Cl)P(=O)(O)O", "note": "[Clodronate]", "log": 0.114}
{"smiles": "O=C1CCc2cc(OCCCCc3nnnn3C3CCCCC3)ccc2N1", "note": "[Cilostazol]", "log": -0.13}
{"smiles": "CCS(=O)(=O)CCn1c([N+](=O)[O-])cnc1C", "note": "[Tinidazole]", "log": -0.105}
{"smiles": "CCC1=C(C)CN(C(=O)NCCc2ccc(S(=O)(=O)NC(=O)N[C@H]3CC[C@H](C)CC3)cc2)C1=O", "note": "[Glimepiride]", "log": 0.0638}
{"smiles": "CC1(C)NC(=O)N(c2ccc([N+](=O)[O-])c(C(F)(F)F)c2)C1=O", "note": "[Nilutamide]", "log": -0.0456}
{"smiles": "COC(=O)[C@@H]1[C@H]2C[C@H]3c4[nH]c5ccccc5c4CCN3C[C@@H]2CC[C@@H]1O", "note": "[Yohimbine hydrochloride]", "log": -0.0275}
{"smiles": "CCCCC(CC)CNC(=N)NC(=N)NCCCCCCNC(=N)NC(=N)NCC(CC)CCCC", "note": "(stereo not given) [Alexidine dihydrochloride]", "log": -1.39}
{"smiles": "Nc1nc(=O)c2c([nH]1)NC[C@@H](CNc1ccc(C(=O)N[C@@H](CCC(=O)O)C(=O)O)cc1)N2C=O", "note": "[Folinic acid calcium salt]", "log": -0.268}
{"smiles": "COc1ccc2cc([C@@H](C)C(=O)O)ccc2c1", "note": "[(R) -Naproxen sodium salt]", "log": -0.0528}
{"smiles": "CCOC(=O)C1=C[C@]2(CC)CCCN3CCc4c(n1c1ccccc41)[C@@H]32", "note": "[Vinpocetine]", "log": 0.0503}
{"smiles": "Cc1cccc(CN2CCN(C(c3ccccc3)c3ccc(Cl)cc3)CC2)c1", "note": "(stereo not given) [Meclozine dihydrochloride]", "log": -0.0681}
{"smiles": "COc1cnc(NS(=O)(=O)c2ccc(N)cc2)nc1", "note": "[Sulfameter]", "log": 0.149}
{"smiles": "O=C(O)CCC(=O)Nc1ccc(S(=O)(=O)Nc2nccs2)cc1", "note": "[Succinylsulfathiazole]", "log": 0.142}
{"smiles": "COc1ccccc1O", "note": "[Guaiacol]", "log": 0.0581}
{"smiles": "CNCCC(Oc1ccccc1OC)c1ccccc1", "note": "(stereo not given) [Nisoxetine hydrochloride]", "log": 0.1}
{"smiles": "CCCCC(C)(O)C/C=C/[C@H]1[C@H](O)CC(=O)[C@@H]1CCCCCCC(=O)OC", "note": "(mixture of isomers) [Misoprostol]", "log": 0.093}
{"smiles": "CC(=O)N(CC(C)C(=O)O)c1c(I)cc(I)c(N)c1I", "note": "(stereo not given) [Iocetamic acid]", "log": -0.217}
{"smiles": "CN(C)[C@@H]1C(O)=C(C(N)=O)C(=O)[C@@]2(O)C(O)=C3C(=O)c4c(O)ccc(Cl)c4[C@@](C)(O)[C@H]3C[C@@H]12", "note": "[Chlortetracycline hydrochloride]", "log": 0.089}
{"smiles": "C[C@]12CC[C@@H]3c4ccc(O)cc4CC[C@H]3[C@@H]1CCC2=O", "note": "[Estrone]", "log": -0.147}
{"smiles": "CC1CS(=O)(=O)CCN1/N=C/c1ccc([N+](=O)[O-])o1", "note": "(stereo not given) [Nifurtimox]", "log": -0.048}
{"smiles": "CN1CC2c3ccccc3Oc3ccc(Cl)cc3C2C1", "note": "(stereo not given) [Asenapine maleate]", "log": 0.097}
{"smiles": "c1ccc2[nH]c(-c3cscn3)nc2c1", "note": "[Tiabendazole]", "log": 0.0503}
{"smiles": "CCCCCCCN(CC)CCCC(O)c1ccc(NS(C)(=O)=O)cc1", "note": "(stereo not given) [Ibutilide fumarate]", "log": 0.233}
{"smiles": "COc1ccc(-c2cc(=O)c3c(O)cc(O[C@@H]4O[C@H](CO[C@@H]5O[C@@H](C)[C@H](O)[C@@H](O)[C@H]5O)[C@@H](O)[C@H](O)[C@H]4O)cc3o2)cc1O", "note": "[Diosmin]", "log": -0.0473}
{"smiles": "C[C@]12CC[C@@H]3c4ccc(O)cc4CC[C@H]3[C@@H]1C[C@@H](O)[C@@H]2O", "note": "[Estriol]", "log": 0.138}
{"smiles": "CN(C)CCCO[C@@H]1[C@H]2OC(C)(C)O[C@H]2O[C@@H]1[C@H](O)CO", "note": "[Amiprilose hydrochloride]", "log": -0.0476}
{"smiles": "CC[N+](CC)(CC)CCC(O)(c1ccccc1)C1CCCCC1", "note": "(stereo not given) [Tridihexethyl chloride]", "log": -0.04}
